Assay results: patent US20110144001A1 (SANOFI-AVENTIS, priority 2008, published 2011)

Test: peptide synthesis
Conditions: late stage modification step, cyclic, sequence written open

## Boc-Protected Labyrinthopeptin A1
  step yield: 40.8%

## Bis-Benzyl Derivative of Labyrinthopeptin A1
  step yield: 17.5%
